Measured values taken from PMC11178545, “Alkynyl nicotinamides show antileukemic activity in drug-resistant acute myeloid leukemia” (The Journal of Clinical Investigation, 2024).

What was measured:
[1] = tested on: BaF3 cells transduced with Flt3ITD/ITD, with IL3; test: BaF3 Flt3ITD/ITD proliferation in the presence of IL3 (Supplementary Figure 3A); conditions: replicates
[2] = tested on: BaF3 cells expressing FLT3ITD; test: BaF3 proliferation, colorimetric WST-1 assay; assay type: cell-based, murine
[3] = tested on: BaF3 cells expressing FLT3ITD-D835Y; test: BaF3 proliferation, colorimetric WST-1 assay

## CO[C@@H]1[C@H](N(C)C(=O)c2ccccc2)C[C@H]2O[C@]1(C)n1c3ccccc3c3c4c(c5c6ccccc6n2c5c31)C(=O)NC4 [Midostaurin]
[1]; concentration 0.08 (unit not given)
  Supplementary Figure 3A - BaF3-ITD+IL3 proliferation: 107.388
[1]; concentration 250 (unit not given), listed as Midostuarin
  Supplementary Figure 3A - BaF3-ITD+IL3 proliferation: 104.916
[2]; BaF3/FLT3 ITD, concentration 0.016 (unit not given), 48 hours, replicates, listed as Midostuarin
  proliferation, colorimetric assay: 105.017
[2]; Mus musculus, BaF3 FLT3ITD, read-out: IC50, growth inhibition
  IC50: 9.63 nM
[3]; BaF3/FLT3 ITD-D835Y, concentration 0.08 (unit not given), 48 hours, replicates, listed as Midostuarin
  proliferation, colorimetric assay: 105.403
[3]; Mus musculus, BaF3, read-out: IC50, growth inhibition
  IC50: 10.7 nM
